{"source": "PubChem BioAssay AID1259284 (Sanger Institute, 2017)", "aim": "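siRNA screen across the kinome seeking partners for BYL719, cetuximab or trametinib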 (primary screen)", "system": "SW48 human colorectal cancer cells", "reagent": "siRNA pool against human genes", "treatment": "anchor drug BYL719 at 1 µM, cetuximab at 5 µg/ml or trametinib at 10 nM, or DMSO vehicle alone", "measurement": "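Cell viability relative to non-targeting pool wells, replicate mean, with robust z-scores and drug synergy scores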", "direction": "robust z-score, no drug: higher = more cells survive knock-down; viability, no drug: higher = more viable cells", "units": "viability, no drug in fraction of control", "rule for the call": "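Called essential when the robust z-score of viability without drug falls below -3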", "meaning of the calls": "active = essential without drug; inactive = no change without drug", "note": "Here is a random part of 794 deposited reagents. 16 of all reagents (2%) were called active. 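Calls concern knock-down without drug only; drug synergy was judged apart, with scores above 0.15 taken as synergy.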 No viability above 1 is reported: the scale is capped. Not all columns of the deposit are shown. Not stated in the record: the amount of reagent, the time to read-out."}
{"gene knocked down": "WIPF1 (WAS/WASL interacting protein family member 1)", "robust z-score, no drug": -1.1, "viability, no drug": 0.869, "Call": "inactive"}
{"gene knocked down": "STK33 (serine/threonine kinase 33)", "robust z-score, no drug": 0.426, "viability, no drug": 1, "Call": "inactive"}
{"gene knocked down": "PKN3 (protein kinase N3)", "robust z-score, no drug": -1.21, "viability, no drug": 0.86, "Call": "inactive"}
{"gene knocked down": "UCKL1 (uridine-cytidine kinase 1 like 1)", "robust z-score, no drug": 0.426, "viability, no drug": 1, "Call": "inactive"}
{"gene knocked down": "TTBK1 (tau tubulin kinase 1)", "robust z-score, no drug": 0.426, "viability, no drug": 1, "Call": "inactive"}
{"gene knocked down": "NADK (NAD kinase)", "robust z-score, no drug": 0.426, "viability, no drug": 1, "Call": "inactive"}
{"gene knocked down": "ACVR1B (activin A receptor type 1B)", "robust z-score, no drug": 0.109, "viability, no drug": 0.973, "Call": "inactive"}
{"gene knocked down": "ITK (IL2 inducible T cell kinase)", "robust z-score, no drug": 0.426, "viability, no drug": 1, "Call": "inactive"}
{"gene knocked down": "HIPK2 (homeodomain interacting protein kinase 2)", "robust z-score, no drug": 0.426, "viability, no drug": 1, "Call": "inactive"}
{"gene knocked down": "AURKC (aurora kinase C)", "robust z-score, no drug": 0.426, "viability, no drug": 1, "Call": "inactive"}
{"gene knocked down": "TP53BP1 (tumor protein p53 binding protein 1)", "robust z-score, no drug": 0.426, "viability, no drug": 1, "Call": "inactive"}
{"gene knocked down": "ULK4 (unc-51 like kinase 4)", "robust z-score, no drug": 0.426, "viability, no drug": 1, "Call": "inactive"}
{"gene knocked down": "WNK2 (WNK lysine deficient protein kinase 2)", "robust z-score, no drug": 0.426, "viability, no drug": 1, "Call": "inactive"}
{"gene knocked down": "CSK (C-terminal Src kinase)", "robust z-score, no drug": -1.69, "viability, no drug": 0.819, "Call": "inactive"}
{"gene knocked down": "PLK4 (polo like kinase 4)", "robust z-score, no drug": 0.426, "viability, no drug": 1, "Call": "inactive"}
{"gene knocked down": "CAMK1G (calcium/calmodulin dependent protein kinase IG)", "robust z-score, no drug": 0.426, "viability, no drug": 1, "Call": "inactive"}

As entered above:
Entry of CAMK1G (calcium/calmodulin dependent protein kinase IG) under “Call”: inactive
Entry for ACVR1B (activin A receptor type 1B) under “robust z-score, no drug”: 0.109
Result of HIPK2 (homeodomain interacting protein kinase 2) in “Call”: inactive
For “robust z-score, no drug”, TP53BP1 (tumor protein p53 binding protein 1) is entered as 0.426
Under “robust z-score, no drug”, STK33 (serine/threonine kinase 33) reads 0.426
For “viability, no drug”, PLK4 (polo like kinase 4) shows 1

The results go on.
{"gene knocked down": "RSKR (ribosomal protein S6 kinase related)", "robust z-score, no drug": 0.426, "viability, no drug": 1, "Call": "inactive"}
{"gene knocked down": "WNK1 (WNK lysine deficient protein kinase 1)", "robust z-score, no drug": -0.244, "viability, no drug": 0.943, "Call": "inactive"}
{"gene knocked down": "SMAD4 (SMAD family member 4)", "robust z-score, no drug": 0.426, "viability, no drug": 1, "Call": "inactive"}
{"gene knocked down": "PRKY (protein kinase Y-linked (pseudogene))", "robust z-score, no drug": 0.426, "viability, no drug": 1, "Call": "inactive"}
{"gene knocked down": "TYRO3 (TYRO3 protein tyrosine kinase)", "robust z-score, no drug": 0.426, "viability, no drug": 1, "Call": "inactive"}
{"gene knocked down": "KHK (ketohexokinase)", "robust z-score, no drug": -0.291, "viability, no drug": 0.939, "Call": "inactive"}
{"gene knocked down": "ATRX (ATRX chromatin remodeler)", "robust z-score, no drug": 0.426, "viability, no drug": 1, "Call": "inactive"}
{"gene knocked down": "MAPK4 (mitogen-activated protein kinase 4)", "robust z-score, no drug": 0.197, "viability, no drug": 0.98, "Call": "inactive"}
{"gene knocked down": "BMP2K (BMP2 inducible kinase)", "robust z-score, no drug": -0.218, "viability, no drug": 0.945, "Call": "inactive"}
{"gene knocked down": "PHKG1 (phosphorylase kinase catalytic subunit gamma 1)", "robust z-score, no drug": 0.426, "viability, no drug": 1, "Call": "inactive"}
{"gene knocked down": "NEK2 (NIMA related kinase 2)", "robust z-score, no drug": -0.233, "viability, no drug": 0.943, "Call": "inactive"}
{"gene knocked down": "MAP2K6 (mitogen-activated protein kinase kinase 6)", "robust z-score, no drug": 0.0546, "viability, no drug": 0.968, "Call": "inactive"}
{"gene knocked down": "SPEG (striated muscle enriched protein kinase)", "robust z-score, no drug": 0.426, "viability, no drug": 1, "Call": "inactive"}
{"gene knocked down": "TRIM27 (tripartite motif containing 27)", "robust z-score, no drug": 0.426, "viability, no drug": 1, "Call": "inactive"}
{"gene knocked down": "CSNK1G3 (casein kinase 1 gamma 3)", "robust z-score, no drug": 0.426, "viability, no drug": 1, "Call": "inactive"}
{"gene knocked down": "GUCY2C (guanylate cyclase 2C)", "robust z-score, no drug": 0.426, "viability, no drug": 1, "Call": "inactive"}
{"gene knocked down": "BTK (Bruton tyrosine kinase)", "robust z-score, no drug": 0.426, "viability, no drug": 1, "Call": "inactive"}
{"gene knocked down": "SBK1 (SH3 domain binding kinase 1)", "robust z-score, no drug": 0.426, "viability, no drug": 1, "Call": "inactive"}
{"gene knocked down": "NEK4 (NIMA related kinase 4)", "robust z-score, no drug": 0.426, "viability, no drug": 1, "Call": "inactive"}
{"gene knocked down": "GNE", "robust z-score, no drug": 0.426, "viability, no drug": 1, "Call": "inactive"}
